The target of experiment [1] is T1, E. coli TatC, chromosomally encoded, with a Twin-Strep tag (E. coli) (UniProt P69423).
T1 sequence: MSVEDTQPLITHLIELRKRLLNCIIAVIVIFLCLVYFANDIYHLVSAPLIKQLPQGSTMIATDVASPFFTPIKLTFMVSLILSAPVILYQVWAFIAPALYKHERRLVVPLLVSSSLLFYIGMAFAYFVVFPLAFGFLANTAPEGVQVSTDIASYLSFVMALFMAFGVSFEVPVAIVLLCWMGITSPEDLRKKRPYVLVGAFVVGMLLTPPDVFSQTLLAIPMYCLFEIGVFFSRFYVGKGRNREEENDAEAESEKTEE
Nature of the experiment: pull-down.

The target in experiment [2] is T2, E. coli TatC with a C-terminal strep tag, expressed from the tatABC plasmid (E. coli) (UniProt P69423).
T2 sequence: T1 sequence
In words: pull-down.

No constants are given. Whether binding was seen depends on the method and setting. In cells and extracts the contact can be indirect. Some results given as binding are weak or reduced against the parent protein; the word gives no strength. Where a sequence is shown, tags or fusion partners need not be part of it.

B1: E. coli TatA, natively expressed (protein, UniProt P69428 1-89)
chain: MGGISIWQLLIIAVIVVLLFGTKKLGSIGSDLGASIKGFKKAMSDDEPKQDKTSQDADFTAKTIADKQADTNQEQAKTEDAKRHDKEQV
As to B1, the binding result in experiment [1] is given as “binds”.

B2: E. coli TatA with an internal His tag (protein, UniProt P69428 1-89)
chain: B1 chain
As to B2, the binding result in experiment [2] was “binds”.

B3: E. coli TatB, natively expressed (protein, UniProt P69425 1-171)
chain: MFDIGFSELLLVFIIGLVVLGPQRLPVAVKTVAGWIRALRSLATTVQNELTQELKLQEFQDSLKKVEKASLTNLTPELKASMDELRQAAESMKRSYVANDPEKASDEAHTIHNPVVKDNEAAHEGVTPAAAQTQASSPEQKPETTPEPVVKPAADAEPKTAAPSPSSSDKP
In the case of B3, the binding entry in experiment [1] is given as “binds”.

The values are drawn from paper doi:10.1101/2025.09.18.677151.
